Our source for the binding values is article PMC6534289.

The chains behind the UniProt entries cited, without tags or fusion partners.
UniProt P58462: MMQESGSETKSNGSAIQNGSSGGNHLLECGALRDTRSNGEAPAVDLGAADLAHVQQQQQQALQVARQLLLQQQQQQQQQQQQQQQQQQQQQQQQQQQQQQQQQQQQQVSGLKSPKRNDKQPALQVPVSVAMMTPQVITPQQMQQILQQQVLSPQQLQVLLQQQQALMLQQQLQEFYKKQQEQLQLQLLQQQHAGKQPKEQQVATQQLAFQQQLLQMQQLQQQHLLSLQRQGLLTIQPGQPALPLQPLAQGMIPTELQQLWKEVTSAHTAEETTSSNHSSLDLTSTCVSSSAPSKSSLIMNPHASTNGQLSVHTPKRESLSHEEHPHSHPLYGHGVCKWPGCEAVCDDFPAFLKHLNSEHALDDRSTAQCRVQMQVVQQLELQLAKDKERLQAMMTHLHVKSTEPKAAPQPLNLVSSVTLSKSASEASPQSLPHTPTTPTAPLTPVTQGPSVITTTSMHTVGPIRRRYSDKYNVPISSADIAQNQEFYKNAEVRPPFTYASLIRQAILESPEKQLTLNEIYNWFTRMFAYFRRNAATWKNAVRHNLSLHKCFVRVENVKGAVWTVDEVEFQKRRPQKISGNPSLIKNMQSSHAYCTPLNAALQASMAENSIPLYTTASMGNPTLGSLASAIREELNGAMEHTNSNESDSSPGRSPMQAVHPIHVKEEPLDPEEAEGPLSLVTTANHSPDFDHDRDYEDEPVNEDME

These are yes or no findings as the source states them, for the method shown. In cells and extracts the contact can be indirect. Some binding calls cover weakened binding; strength is not graded here.

This assay has as its target T1, forkhead box P3 (Foxp3) (mouse (endogenous in iTreg cells)) (UniProt Q99JB6).
T1 sequence: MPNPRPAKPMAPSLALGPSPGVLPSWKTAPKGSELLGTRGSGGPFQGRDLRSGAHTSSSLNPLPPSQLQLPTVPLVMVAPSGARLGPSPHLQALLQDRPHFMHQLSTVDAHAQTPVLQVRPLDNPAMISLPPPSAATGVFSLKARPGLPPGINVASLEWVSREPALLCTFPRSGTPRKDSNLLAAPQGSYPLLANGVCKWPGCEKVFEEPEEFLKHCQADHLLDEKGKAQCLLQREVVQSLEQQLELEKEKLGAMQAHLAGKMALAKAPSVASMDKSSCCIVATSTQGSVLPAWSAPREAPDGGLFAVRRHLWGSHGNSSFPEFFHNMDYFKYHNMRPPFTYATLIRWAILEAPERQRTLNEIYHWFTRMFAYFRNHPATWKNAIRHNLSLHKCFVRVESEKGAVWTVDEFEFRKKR
Kind of assay: co-IP; lysates of mouse iTreg cells in RIPA buffer; immunoprecipitated with antibodies (1 ug/mL) and protein A sepharose beads at 4 °C, immunoblot; isotype matched IgG and Foxp1f/fFoxp3Cre cells as controls. For orientation: Immunoblotting shows a protein as a band on a membrane.

Take “forkhead box P1 (Foxp1) (from UniProt P58462 1-705)”: the binding result is given as “binds”.
